In PubChem BioAssay AID2685 (National Center for Advancing Translational Sciences (NCATS), 2010):
Hit rate of the full screen: of about 320,000 compounds, about 2,100 (0.66%) were called active. The shares of active, inactive and inconclusive entries below differ from those in the screen. The call rests on the fitted dose curve; in most records, active means well fitted inhibition curve with a large enough effect in the signal ratio, with a control signal flat (not every such curve was filed as active); inconclusive means small, poorly fitted or top-dose-only effect, or effect the other way, or a change in a side signal; inactive means flat fitted curve, though single readings scatter; the % refers to the signal ratio. Potencies beside an inconclusive call are fits to weak or partial responses and may not hold up.
On the % scale 0 is the no-effect control and ±100 the full control effect; potency means the concentration at half of the fitted maximal effect.

Experiment: qHTS Assay for Lipid Storage Modulators in Drosophila S3 Cells
Conditions: BODIPY lipid droplet fluorescence, 18-24 h, cells fed with added oleic acid; lipid storage change, negative = inhibition: at 46.1 µM (top of the series) unless noted
In short: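 Drosophila S3 cells loaded with oleic acid (400 uM, as added) and compounds at several concentrations; lipid droplets imaged by 488-nm laser-scanning cytometry, 500–530 nm intensity and object ratio to cell channel. Percent activity normalized to 20 uM Triacsin C.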
In the case of `COc1ccc(OC)c(Nc2nc(-c3ccccc3O)nc3ccccc23)c1`, the lipid storage change, negative = inhibition is reported as inconclusive: 75%. With `CC(=O)Nc1ccc(OCC(O)Cn2nc(C)c(C(C)=O)c2C)cc1` (stereo unspecified) the lipid storage change, negative = inhibition was inconclusive: -28.9%. For `Cc1ccc(-c2nc(NC(=O)c3nn(C)cc3[N+](=O)[O-])sc2C)cc1C`, the Potency was inconclusive: 29.1 µM [rising, single point]. With `C=CCn1c(SCc2nc3ccccc3[nH]2)nnc1-c1ccc(OC)cc1` the lipid storage change, negative = inhibition was inconclusive: -24.3%. In the case of `Cc1ccc(S(=O)(=O)Nc2ccccc2F)cc1C(=O)NNC(=O)c1csc(N2CCOCC2)n1`, the Potency is reported as inconclusive: 29.1 µM [rising, single point]. In the case of `Cc1nnc(NC(=O)C23CC4CC(CC(C4)C2)C3)s1`, the lipid storage change, negative = inhibition is reported as inconclusive: -4.21%. In the case of `O=C(CN1CCOCC1)Nc1nc2cc([N+](=O)[O-])ccc2s1`, the lipid storage change, negative = inhibition is reported as inconclusive: 22.9%. In the case of `Cc1ccc(S(=O)(=O)N2CCOC2CNC(=O)C(=O)NCCc2c[nH]c3ccccc23)cc1` (stereo unspecified), the lipid storage change, negative = inhibition is reported as inactive: 6.05% [at 9.22 µM]. In the case of `COc1ccc(NC(=S)N2CCN(c3ncccn3)CC2)c(OC)c1`, the lipid storage change, negative = inhibition is reported as inconclusive: 1.48%. With `Cc1nnc(SCc2ccc(F)cc2)n1NC/C=C/c1ccccc1` the lipid storage change, negative = inhibition was inconclusive: -9.7%. In the case of `O=C(CN1C(=O)CSC1=O)c1ccccc1`, the lipid storage change, negative = inhibition is reported as inconclusive: -17.4%. With `COc1ccc(CCn2c(N3CCN(Cc4ccccc4)CC3)nc3c2c(=O)[nH]c(=O)n3C)cc1` the lipid storage change, negative = inhibition was inconclusive: 16.2%. In the case of `C/C(=N\NC(=O)c1ccn(C)n1)c1cccc(NC(=O)c2ccncc2)c1`, the lipid storage change, negative = inhibition is reported as inconclusive: 3.04%. With `O=C(CNC(=O)c1ccc(Br)o1)NCc1ccc(F)cc1` the Potency was inconclusive: 0.0184 µM [falling, full curve, poor fit]. In the case of `CCCCn1c(CN2CCN(c3ccc(F)cc3)CC2)nc2c1c(=O)n(C)c(=O)n2C`, the “lipid storage change, negative = inhibition” value is reported as inactive: 5.72%. For `CC(=Nc1ccc(Br)cc1)c1sc2ccccc2c1O`, the “outcome” value was “inactive [at 46.1 µM]”. In the case of `O=C(NC(=S)Nc1ccc(S(=O)(=O)Nc2nccs2)cc1)c1cccc(F)c1`, the Potency is reported as inconclusive: 29.1 µM [activator, single point]. With `Cc1cc2cc3c(cc2nc1SCC(=O)Nc1nc(C)c(C)s1)OCO3` the Potency was inconclusive: 0.291 µM [activator, full curve]. With `N#C/C(=C\c1c[nH]c2ccccc12)c1nnc2n1CCCCC2` the “lipid storage change, negative = inhibition” value was inactive: 0.21%. In the case of `COc1ccc(S(=O)(=O)N2CCCCC2)cc1NC(=O)Cc1ccsc1`, the lipid storage change, negative = inhibition is reported as inconclusive: 35.6%. For `COc1ccc(S(=O)(=O)N2CCOC2CNC(=O)C(=O)NCCc2ccccc2OC)cc1C` (stereo unspecified), the lipid storage change, negative = inhibition was inconclusive: 35.9%. For `COCc1cc(N2CCCC2)nc(-c2ccccc2)n1`, the Potency was inconclusive: 20.6 µM [activator, partial curve]. With `COc1ccc(CNS(=O)(=O)c2cc(-c3cc(C)no3)ccc2OC)cc1OC` the lipid storage change, negative = inhibition was inconclusive: 31.9%. In the case of `C/C(Cc1ccccc1)=N\NC(=O)c1ccccn1`, the lipid storage change, negative = inhibition is reported as inconclusive: 41.3%. For `CCOC(=O)CNC(=O)/C=C/c1c(Cl)cccc1Cl`, the lipid storage change, negative = inhibition was inconclusive: 14.4%. In the case of `O=C1Nc2ccc(NS(=O)(=O)c3cccs3)c3cccc1c23`, the lipid storage change, negative = inhibition is reported as inconclusive: 24.4%. For `CN1C(=O)/C(=C/c2cccc(Cl)c2)Sc2ccc(C(=O)N3CCOCC3)cc21`, the “outcome” value was “inactive [at 46.1 µM]”. With `Cc1ccc(S(=O)(=O)N(C)C)cc1NC(=O)COC(=O)CCC(=O)c1cccs1` the Potency was inconclusive: 0.411 µM [activator, full curve]. In the case of `Cc1cc(NC(=O)CSc2nc3c(c(=O)n2Cc2ccccc2)SC(C)C3)no1` (stereo unspecified), the lipid storage change, negative = inhibition is reported as inconclusive: -0.765%. In the case of `O=C(c1cc(-c2ccco2)nc2ccccc12)N(Cc1nnc(-c2ccc(Cl)cc2)o1)C1CC1`, the Potency is reported as inconclusive: 0.82 µM [falling, full curve, poor fit]. In the case of `O=C(NC(=S)NNC(=O)c1ccco1)c1ccc(F)cc1`, the Potency is reported as active: 18.4 µM. With `O=C(NCCN1C(=O)S/C(=C\c2cccnc2)C1=O)c1cccc(OC(F)F)c1` the lipid storage change, negative = inhibition was inconclusive: -74.7%. For `Cc1nnc(SCC(=O)NCCN2C(=O)CSC2=O)s1`, the Potency was inconclusive: 29.1 µM [cytotoxic, single point]. With `Cc1ccc2nc(SCC(=O)c3cc(C)n(C)c3C)[nH]c2c1` the Potency was inconclusive: 16.4 µM [cytotoxic, partial curve]. With `COC(=O)C(NC(=O)c1ccccc1)(Nc1nc(C)cs1)C(F)(F)F` (stereo unspecified) the Potency was inconclusive: 3.26 µM [falling, full curve, poor fit]. In the case of `O=S(=O)(c1cccc(Br)c1)N1CCN(c2ccnc3cc(Cl)ccc23)CC1`, the lipid storage change, negative = inhibition is reported as inconclusive: -52%. In the case of `CCN(CC)S(=O)(=O)c1cccc(-c2nnc(SCC(=O)NCCC3=CCCCC3)n2N)c1`, the lipid storage change, negative = inhibition is reported as inconclusive: 3.97%. With `Cc1ccc2[nH]c(=O)c(CN(c3cccc(C)c3C)S(=O)(=O)c3ccccc3)cc2c1` the Potency was inconclusive: 6.51 µM [falling, single point]. For `Cc1ccc(S(=O)(=O)N2CCOCC2)cc1NC(=O)COC(=O)CNC(=O)c1ccc(Cl)cc1Cl`, the lipid storage change, negative = inhibition was inconclusive: -100%. In the case of `CC(C)Cc1nc2ccccc2n1CCc1ccccc1`, the lipid storage change, negative = inhibition is reported as inconclusive: 1.3%. In the case of `CCn1nnnc1-c1ccc(OC)c(S(=O)(=O)Nc2ccc(C)c(C)c2)c1`, the lipid storage change, negative = inhibition is reported as inconclusive: 42.9%. For `O=C(c1ccc(S(=O)(=O)N2CCCC2)cc1)N1CCN(c2ccccc2)CC1`, the lipid storage change, negative = inhibition was inconclusive: -47.7%. In the case of `Cc1ccc(S(=O)(=O)CCC(=O)OCC(=O)N(C)C2CCS(=O)(=O)C2)cc1` (stereo unspecified), the lipid storage change, negative = inhibition is reported as “inconclusive”. In the case of `CCOC(=O)C1=C(C)NC(=O)NC1C` (stereo unspecified), the Potency is reported as active: 5.17 µM. For `O=C(Cc1ccccc1)NCC(=O)OCC(=O)c1ccccc1Cl`, the lipid storage change, negative = inhibition was inconclusive: -42.3%. In the case of `Cc1cnc(C(=O)N2CCCC(C(=O)c3ccc(Cl)cc3C)C2)cn1` (stereo unspecified), the lipid storage change, negative = inhibition is reported as inconclusive: -14.1%. For `Cc1ccc(CCNC(=O)C2=CCN(S(=O)(=O)c3ccccc3)CC2)cc1`, the Potency was inconclusive: 5.17 µM [activator, single point]. For `Cn1c2ccccc2c2n[nH]c(=O)nc21`, the lipid storage change, negative = inhibition was inconclusive: 10.2%. In the case of `CCn1c(-c2ccccc2Cl)nn(CC(=O)Nc2cc(Cl)ccc2Cl)c1=S`, the lipid storage change, negative = inhibition is reported as inconclusive: 8.41%. For `CC(OC(=O)C1CCN(c2ccc(C(F)(F)F)cn2)CC1)C(=O)NC1CCCCC1C` (stereo unspecified), the Potency was inconclusive: 0.0065 µM [activator, full curve, poor fit]. With `COC(=O)CSc1nc(N)c(C#N)c(CC(C)C)c1C#N` the lipid storage change, negative = inhibition was inconclusive: 9.05%. With `Oc1ccccc1O` the lipid storage change, negative = inhibition was inconclusive: 8.87%. For `O=S(=O)(/N=C(/Nc1ccc(Cl)c(S(=O)(=O)Nc2ccccc2Cl)c1)c1ccc(F)cc1)c1ccccc1`, the lipid storage change, negative = inhibition was inconclusive: 98.8%. In the case of `O=C(Nc1nccs1)c1ccc2ccccc2c1`, the lipid storage change, negative = inhibition is reported as inconclusive: -53.9%. For `CC(=O)c1cccc(NC(=O)COc2cc(C)on2)c1`, the lipid storage change, negative = inhibition was inconclusive: 12.2%. With `O=C(Nc1ccccn1)c1ccc2nc(-c3ccccc3)c(-c3ccccc3)nc2c1` the lipid storage change, negative = inhibition was inconclusive: -19.1%. In the case of `N#CC1CC(c2ccccc2)=NN1c1ccccc1[N+](=O)[O-]` (stereo unspecified), the lipid storage change, negative = inhibition is reported as inconclusive: 23.3%. In the case of `COc1ccc(C(=O)c2oc3ccc(OC)cc3c2NC(C)=O)cc1`, the lipid storage change, negative = inhibition is reported as inconclusive: 74.2%. For `COc1ccc([C@H]2CC(=O)C=C(c3ccc4cc[nH]c4c3)C2)cc1`, the Potency was inconclusive: 0.082 µM [falling, single point]. In the case of `Cc1ccc(-c2nn(-c3ccccc3)cc2C(N)=O)o1`, the lipid storage change, negative = inhibition is reported as inconclusive: 133%. With `Cc1ccc(OCC(=O)NCCS(=O)(=O)N2CCN(c3ccccc3)CC2)cc1` the lipid storage change, negative = inhibition was inconclusive: 42%. In the case of `Cc1ccccc1NC(=O)C1CCCN(c2nnc(N3CCCC3=O)s2)C1` (stereo unspecified), the lipid storage change, negative = inhibition is reported as inconclusive: -13.2%. With `O=C(OC1CCOC1=O)c1cccc(S(=O)(=O)Nc2ccc(F)cc2)c1` (stereo unspecified) the lipid storage change, negative = inhibition was inconclusive: -10.5%. With `O=C(NC1CCCC1)c1cc2cc(Br)ccc2o1` the lipid storage change, negative = inhibition was inconclusive: -100%. For `O=C1CCN(Cc2ccccc2)CCN1CCOc1ccccc1`, the lipid storage change, negative = inhibition was inconclusive: -16.4%. In the case of `Cc1cc(C(=O)N/N=C2\CC(=O)CC(C)(C)C2)c(C)n1-c1ccc(F)cc1`, the lipid storage change, negative = inhibition is reported as inconclusive: 14.2%. In the case of `COc1ccccc1C(=O)NC(=O)Nc1cccc(Cl)c1`, the lipid storage change, negative = inhibition is reported as inconclusive: 7.71%. For `CN(CCC#N)C(=O)COC(=O)c1cc(Cl)cc(Cl)c1N`, the lipid storage change, negative = inhibition was inconclusive: 1.34%. In the case of `CCc1cccc(OCC2Cn3c(nc4c3c(=O)[nH]c(=O)n4C)O2)c1` (stereo unspecified), the lipid storage change, negative = inhibition is reported as inconclusive: -71%. For `COCCCNc1ncnc2c1[nH]c1ccccc12`, the lipid storage change, negative = inhibition was inconclusive: -2.44%. In the case of `Cc1cc(S(=O)(=O)N2c3ccc(F)cc3CCC2C)ccc1-n1cnnn1` (stereo unspecified), the lipid storage change, negative = inhibition is reported as inconclusive: -47.5%. In the case of `CCCN1C(=O)C2(SC(NC(C)=O)=NN2C(C)=O)c2cc(C)cc(C)c21` (stereo unspecified), the lipid storage change, negative = inhibition is reported as inconclusive: -5.51%. In the case of `Nc1cccc2c1C(=O)N(CCOc1ccc(F)cc1)C2=O`, the lipid storage change, negative = inhibition is reported as inconclusive: 25.7%. With `O=C(/C=C/c1cccc(Br)c1)OCC(=O)N1CCN(c2ccccc2)CC1` the lipid storage change, negative = inhibition was inconclusive: 24.2%. For `CCOC(=O)C1C(=O)NC(SC)=C(C#N)C1c1ccccc1F` (stereo unspecified), the lipid storage change, negative = inhibition was inconclusive: 48%. With `CCN(CC)c1ccc2c(Cl)c(Br)c(=O)oc2c1` the lipid storage change, negative = inhibition was inconclusive: -98.9%. With `O=C1CC(C(=O)NCCc2ccccc2)SC(=Nc2ccccc2)N1` (stereo unspecified) the lipid storage change, negative = inhibition was inconclusive: 7.55%. For `Cc1sc(NC(=O)C2=COCCO2)c(C#N)c1C`, the lipid storage change, negative = inhibition was inconclusive: -30.5%. For `COc1ccc(NC(=O)CN(C)S(=O)(=O)c2ccc(Cl)cc2)cn1`, the Potency was inconclusive: 6.51 µM [activator, single point]. In the case of `CC(C)CC(=O)Nc1cccc(-c2nc3ncccc3o2)c1`, the “lipid storage change, negative = inhibition” value is reported as inactive: 8.93%. With `O=C(Cc1cccc2ccccc12)Nc1nnc(-c2cccc([N+](=O)[O-])c2)s1` the Potency was inconclusive: 8.2 µM [activator, partial curve].
